Measured values: PMC5824420
Results are given in words; binding and its absence hold for the method and conditions named. Binding seen in cells or lysates may run through a third protein. Some results given as binding are weak or reduced against the parent protein; the word gives no strength.

Protein sequences, listed by entry. Tags and fused reporters are not part of them.
UniProt P03466: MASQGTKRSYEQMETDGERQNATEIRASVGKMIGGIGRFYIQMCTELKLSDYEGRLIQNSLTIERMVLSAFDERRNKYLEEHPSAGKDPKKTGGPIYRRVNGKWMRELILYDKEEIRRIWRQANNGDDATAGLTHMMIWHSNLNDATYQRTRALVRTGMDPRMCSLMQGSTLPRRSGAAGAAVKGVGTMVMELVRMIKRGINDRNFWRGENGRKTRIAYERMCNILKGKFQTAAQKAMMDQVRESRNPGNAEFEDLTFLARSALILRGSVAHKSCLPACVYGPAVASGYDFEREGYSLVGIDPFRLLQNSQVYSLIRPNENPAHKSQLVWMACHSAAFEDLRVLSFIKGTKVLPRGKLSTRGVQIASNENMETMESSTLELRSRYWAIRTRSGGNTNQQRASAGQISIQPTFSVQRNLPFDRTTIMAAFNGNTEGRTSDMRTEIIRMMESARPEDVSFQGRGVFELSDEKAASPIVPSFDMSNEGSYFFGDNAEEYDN
UniProt O14980: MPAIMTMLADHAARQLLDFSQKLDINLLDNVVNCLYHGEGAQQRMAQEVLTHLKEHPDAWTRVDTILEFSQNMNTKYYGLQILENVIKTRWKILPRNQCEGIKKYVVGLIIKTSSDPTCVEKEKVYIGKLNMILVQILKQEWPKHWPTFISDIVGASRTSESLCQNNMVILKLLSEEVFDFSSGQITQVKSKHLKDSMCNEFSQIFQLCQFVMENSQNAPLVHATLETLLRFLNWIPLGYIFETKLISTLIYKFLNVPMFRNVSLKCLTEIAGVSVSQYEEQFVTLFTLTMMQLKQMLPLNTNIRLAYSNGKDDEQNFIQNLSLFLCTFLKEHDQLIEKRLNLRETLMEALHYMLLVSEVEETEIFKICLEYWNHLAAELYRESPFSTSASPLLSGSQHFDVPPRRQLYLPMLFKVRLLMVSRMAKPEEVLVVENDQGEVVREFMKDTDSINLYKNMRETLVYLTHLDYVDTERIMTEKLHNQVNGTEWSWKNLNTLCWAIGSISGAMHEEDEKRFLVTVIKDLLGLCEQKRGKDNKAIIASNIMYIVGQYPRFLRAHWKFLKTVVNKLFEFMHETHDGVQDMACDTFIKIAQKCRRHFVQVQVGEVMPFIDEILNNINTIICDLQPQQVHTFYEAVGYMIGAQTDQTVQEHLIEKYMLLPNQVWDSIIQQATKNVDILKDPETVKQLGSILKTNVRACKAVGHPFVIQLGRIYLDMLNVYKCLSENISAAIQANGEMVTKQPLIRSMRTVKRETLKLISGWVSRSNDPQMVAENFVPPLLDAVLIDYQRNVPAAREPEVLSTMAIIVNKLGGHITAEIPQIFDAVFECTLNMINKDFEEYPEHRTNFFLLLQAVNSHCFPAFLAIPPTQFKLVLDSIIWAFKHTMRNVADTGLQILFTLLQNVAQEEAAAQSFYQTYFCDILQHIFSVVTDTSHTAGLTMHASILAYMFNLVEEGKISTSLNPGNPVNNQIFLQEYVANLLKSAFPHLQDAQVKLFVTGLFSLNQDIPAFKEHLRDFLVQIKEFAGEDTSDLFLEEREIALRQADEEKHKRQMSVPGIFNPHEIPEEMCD

Target: influenza A/PR/8/34 (H1N1) virus nucleoprotein (NP) (influenza A/PR/8/34 (H1N1) virus) (UniProt P03466)
Assay: co-IP

CRM1 (from UniProt O14980 1-1071)
binding: binds
